Drawing on patent US20080131910A1, this text covers binding for 1 molecule.

The target in test [1] is T1, ALK-2 endogenous in PAE/Chim A cells (porcine), E9M2M1.
T1 chain: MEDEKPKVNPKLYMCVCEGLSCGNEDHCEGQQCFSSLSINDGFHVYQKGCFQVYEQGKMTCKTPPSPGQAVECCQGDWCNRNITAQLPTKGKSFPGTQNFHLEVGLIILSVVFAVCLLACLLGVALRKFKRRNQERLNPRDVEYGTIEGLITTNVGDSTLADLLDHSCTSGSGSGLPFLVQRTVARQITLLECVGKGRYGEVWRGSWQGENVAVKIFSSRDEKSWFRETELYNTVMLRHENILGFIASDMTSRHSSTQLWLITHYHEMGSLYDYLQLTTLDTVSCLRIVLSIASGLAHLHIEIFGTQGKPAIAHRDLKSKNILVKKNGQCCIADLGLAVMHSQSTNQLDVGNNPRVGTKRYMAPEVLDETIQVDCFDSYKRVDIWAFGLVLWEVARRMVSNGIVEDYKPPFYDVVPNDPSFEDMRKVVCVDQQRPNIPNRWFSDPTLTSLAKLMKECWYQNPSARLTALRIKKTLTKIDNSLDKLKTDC
The experiment in a line: 125I-activin A cross-linking followed by immunoprecipitation, PAE/Chim A cells. The conditions noted are these: remark: other sources report otherwise.

The target in test [2] is T2, ALK-2 (activin receptor like kinase 2), human (human), Q04771.
T2 chain: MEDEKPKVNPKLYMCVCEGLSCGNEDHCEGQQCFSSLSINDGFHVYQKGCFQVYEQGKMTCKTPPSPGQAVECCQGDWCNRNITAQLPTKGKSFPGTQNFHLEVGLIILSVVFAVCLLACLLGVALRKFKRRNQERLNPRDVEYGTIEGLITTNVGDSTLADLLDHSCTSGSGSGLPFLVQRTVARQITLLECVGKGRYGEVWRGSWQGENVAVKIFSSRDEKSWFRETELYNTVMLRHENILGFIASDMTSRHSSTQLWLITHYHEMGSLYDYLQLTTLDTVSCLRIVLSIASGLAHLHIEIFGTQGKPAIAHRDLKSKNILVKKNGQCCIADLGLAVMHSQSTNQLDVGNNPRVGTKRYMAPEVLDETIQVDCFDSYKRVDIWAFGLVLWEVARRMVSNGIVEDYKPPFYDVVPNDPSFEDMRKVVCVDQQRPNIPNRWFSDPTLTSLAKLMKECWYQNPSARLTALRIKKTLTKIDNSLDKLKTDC
The experiment in a line: affinity cross-linking followed by immunoprecipitation, COS-1 cells co-transfected with ActR-II and the ALK. The conditions noted are these: remark: other sources report otherwise.

These are yes or no findings as the source states them, for the method shown. Some results given as binding are weak or reduced against the parent protein; the word gives no strength.

B1: Recombinant human activin A, P08476 311-426 (ligand, UniProt P08476 311-426, looked up)
chain: GLECDGKVNICCKKQFFVSFKDIGWNDWIIAPSGYHANYCEGECPSHIAGTSGSSLSFHSTVINHYRMRGHSPFANLKSCCVPTKLRPMSMLYYDDGQNIIKKDIQNMIVEECGCS
modifications: here or on the partner: 125I-iodinated (chloramine T method)
Turning to B1, the binding result in test [1] and in test [2] was “binds” in each case.
